# Measurements taken from patent US11795159B2 (priority 2021, dated 2023).
# At least one read-out could not be matched to a standard name with certainty.
# Tested on: SARS-CoV-2
# Type: cell-based
structure (smiles),measurement,value
C/C=C/C(=O)N1CCCC1C(=O)N(c1ccc(C(C)(C)C)cc1)C(C(=O)NC(C)(C)C)c1cccnc1 (stereo not shown) [Compound 8],ID50 (Antiviral Data),+ (key: ++++: 0.1-999 nM; +++: 1.0-10 μM; ++: 10.1-100 μM; +: >100 μM)
